Data from doi:10.1101/2025.10.21.683757.

Chains of the proteins cited; added tags and fusions are not shown.
UniProt Q96N16: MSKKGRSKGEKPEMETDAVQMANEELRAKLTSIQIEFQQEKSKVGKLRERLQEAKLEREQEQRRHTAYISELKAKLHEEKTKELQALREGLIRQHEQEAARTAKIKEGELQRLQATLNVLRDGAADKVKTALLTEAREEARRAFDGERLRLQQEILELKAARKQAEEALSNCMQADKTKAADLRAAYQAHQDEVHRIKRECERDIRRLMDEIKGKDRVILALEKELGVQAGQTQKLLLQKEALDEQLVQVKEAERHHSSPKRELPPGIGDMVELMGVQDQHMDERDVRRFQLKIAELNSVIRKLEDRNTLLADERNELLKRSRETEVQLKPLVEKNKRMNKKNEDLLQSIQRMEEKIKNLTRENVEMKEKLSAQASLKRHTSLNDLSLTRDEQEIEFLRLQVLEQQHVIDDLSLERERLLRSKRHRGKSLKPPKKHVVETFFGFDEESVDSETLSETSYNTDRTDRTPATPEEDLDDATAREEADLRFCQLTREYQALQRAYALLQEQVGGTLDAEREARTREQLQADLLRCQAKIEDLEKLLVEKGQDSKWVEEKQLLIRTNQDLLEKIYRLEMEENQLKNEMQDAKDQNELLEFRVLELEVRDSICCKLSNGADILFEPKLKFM
UniProt Q7L576: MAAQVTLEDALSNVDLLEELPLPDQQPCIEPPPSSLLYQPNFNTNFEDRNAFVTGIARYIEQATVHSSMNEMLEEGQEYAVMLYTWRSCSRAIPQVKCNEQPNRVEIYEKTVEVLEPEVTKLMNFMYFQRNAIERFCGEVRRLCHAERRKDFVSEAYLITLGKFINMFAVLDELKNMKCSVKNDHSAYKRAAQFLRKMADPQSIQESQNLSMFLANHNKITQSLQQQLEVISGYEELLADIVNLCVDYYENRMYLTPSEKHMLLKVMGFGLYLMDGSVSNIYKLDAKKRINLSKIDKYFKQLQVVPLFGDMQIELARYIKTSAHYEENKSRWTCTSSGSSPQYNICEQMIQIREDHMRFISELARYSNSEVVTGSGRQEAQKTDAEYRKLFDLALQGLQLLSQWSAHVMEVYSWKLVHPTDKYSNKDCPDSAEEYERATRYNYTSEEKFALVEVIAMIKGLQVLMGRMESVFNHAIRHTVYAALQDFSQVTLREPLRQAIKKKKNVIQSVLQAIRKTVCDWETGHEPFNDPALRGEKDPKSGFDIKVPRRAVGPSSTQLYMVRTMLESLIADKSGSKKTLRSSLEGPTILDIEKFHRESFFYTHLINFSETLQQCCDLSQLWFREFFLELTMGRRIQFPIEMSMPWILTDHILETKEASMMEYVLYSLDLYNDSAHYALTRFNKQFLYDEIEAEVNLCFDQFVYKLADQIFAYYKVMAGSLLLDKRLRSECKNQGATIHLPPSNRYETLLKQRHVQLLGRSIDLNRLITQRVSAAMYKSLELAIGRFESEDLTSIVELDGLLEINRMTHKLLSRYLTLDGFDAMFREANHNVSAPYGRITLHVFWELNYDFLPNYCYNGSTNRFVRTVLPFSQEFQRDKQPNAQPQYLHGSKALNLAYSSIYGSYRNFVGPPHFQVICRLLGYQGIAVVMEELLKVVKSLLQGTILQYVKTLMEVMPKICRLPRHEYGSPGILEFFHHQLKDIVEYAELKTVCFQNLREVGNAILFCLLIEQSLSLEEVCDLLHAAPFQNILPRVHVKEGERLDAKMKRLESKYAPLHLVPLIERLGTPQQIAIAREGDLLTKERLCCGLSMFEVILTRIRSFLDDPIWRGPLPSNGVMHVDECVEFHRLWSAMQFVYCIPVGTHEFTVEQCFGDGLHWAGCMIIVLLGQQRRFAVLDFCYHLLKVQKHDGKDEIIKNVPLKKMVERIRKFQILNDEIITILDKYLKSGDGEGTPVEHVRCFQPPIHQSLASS

Target: full-length JAKMIP1-mCherry fusion protein (expressed in SH-SY5Y cells) (UniProt Q96N16)
Experiment: affinity purification with mass spectrometry

Question: With “Cytoplasmic FMRP-Interacting Protein 1 (from UniProt Q7L576 1-1253)” as the substance, how does the binding read?
Answer: binds

These are yes or no findings as the source states them, for the method shown. Binding seen in cells or lysates may run through a third protein. These calls come from enrichment with a bait or labelling near it, and not all partners need be listed.
